Values of other authors in paper PMC7115876 (Nature, 2020).

Test system: β1AR
Conditions: cited from earlier work

COc1ccc(CC(C)NCC(O)c2ccc(O)c(NC=O)c2)cc1 (stereo not shown) [formoterol]
agonist efficacy for the coupling of Gs: full agonist
